From patent US20040048262A1, “Methods for determining the bilogical effects of compounds on gene expression” (priority 2003, published 2004)
Some entries share one result that the patent states for a list of compounds.

System: MCF7 cells
Assay: Transcription factor DNA-binding activity profile, nuclear extracts of drug-treated MCF7 cells, genomic DNA library (FIG. 1)
Format: cell-based
Conditions: drug treated 2-6 hr, untreated control less than 0.5%, read from FIG. 1

Row | SMILES | percentage of sequenced fragments from the protein bound population containing an AHRARNT binding site
1 | COc1cccc2c1C(=O)c1c(O)c3c(c(O)c1C2=O)C[C@@](O)(C(=O)CO)C[C@@H]3O[C@H]1C[C@H](N)[C@H](O)[C@H](C)O1 [doxorubicin, Doxorubicin] | over 2%
2 | CC(=O)O[C@H]1C(=O)[C@@]2(C)[C@H]([C@H](OC(=O)c3ccccc3)[C@]3(O)C[C@H](OC(=O)[C@H](O)[C@@H](NC(=O)c4ccccc4)c4ccccc4)C(C)=C1C3(C)C)[C@]1(OC(C)=O)CO[C@@H]1C[C@@H]2O [taxol, Taxol] | over 2%
